Laboratory results from PubChem BioAssay AID2685 (National Center for Advancing Translational Sciences (NCATS), 2010).
This is one part of the list. The main result of the screen is listed elsewhere. These columns were measured beside it and carry no call. Compounds called inactive in the main read-out are mostly missing here. Potencies come from curve fits of mixed quality, noted in brackets.

Assay: qHTS Assay for Lipid Storage Modulators in Drosophila S3 Cells;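 as to cell number change: cells counted by Cell Tracker Red CMTPX staining in the red channel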
Conditions: BODIPY lipid droplet fluorescence, 18-24 h; for cell number change: measured here: cell count max response, cells fed with added oleic acid
Summary of the method: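 Laser-scanning cytometry quantifies lipid droplet accumulation (500–530 nm total intensity; droplet/cell object ratio) in oleic acid-fed (400 uM added) Drosophila S3 cells treated with a concentration series. 20 uM Triacsin C defined 100% inhibition.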

[1] = measured here: cell number channel AC50, cells fed with added oleic acid
[2] = measured here: lipid fluorescence (Fed channel) AC50, cells fed with added oleic acid

Compound: CCCn1c2ccccc2c2cnn(CC(=O)NC3CCC(C)CC3)c(=O)c21 (stereo not drawn)
- cell number change: 4.48%

Compound: O=C(Cc1cccs1)N(Cc1cccs1)C1(C(=O)NC2CCCCC2)CCCCC1
- cell number change: -51%
- AC50 [1]: 18.4 µM [falling, partial curve, poor fit]

Compound: Oc1ccccc1CNc1ncc(Br)cc1Br
- cell number change: -42.4%
- AC50 [1]: 29.1 µM [falling, single point]
- AC50 [2]: 29.1 µM [falling, single point]

Compound: O=C(CSc1nnc(CNC(=O)c2ccccc2)o1)NCc1ccc2c(c1)OCO2
- cell number change: -28%
- AC50 [2]: 32.6 µM [falling, partial curve, poor fit]

Compound: Cc1cc(Oc2ccc(-c3ccccc3)cc2)n2ncnc2n1
- cell number change: -2.06%
- AC50 [2]: 18.4 µM [falling, single point]

Compound: Nc1cc2c(cc1Cl)N(Cc1ccccc1)C(=O)CO2
- cell number change: -2.33%
- AC50 [2]: 7.31 µM [rising, partial curve]

Compound: CN(C)S(=O)(=O)c1ccc(Cl)c(-c2nnc3n2CCCCC3)c1
- cell number change: -33.3%
- AC50 [1]: 29.1 µM [falling, single point]

Compound: C/C(=N\NC(=O)C(N)=O)c1cccc([N+](=O)[O-])c1
- cell number change: 14.2%
- AC50 [2]: 0.146 µM [falling, full curve]

Compound: CC(NC(=O)COc1ccccc1F)C1CC2CCC1C2 (stereo not drawn)
- AC50 [1]: 0.164 µM [falling, full curve, poor fit]
- AC50 [2]: 0.13 µM [falling, full curve, poor fit]

Compound: COc1cc(C2NC(=O)CCC2[N+](=O)[O-])cc(OC)c1OC (stereo not drawn)
- cell number change: -13.9%
- AC50 [1]: 4.61 µM [falling, partial curve, poor fit]
- AC50 [2]: 18.4 µM [rising, partial curve]

Compound: Cc1ccc2c(C)nc(NC3=NCN(CCc4ccccc4)CN3)nc2c1
- cell number change: 9.12%

Compound: O=c1c2ccccc2sn1-c1ccc(S(=O)(=O)N2CCCC2)cc1
- cell number change: -36.4%
- AC50 [1]: 1.84 µM [falling, full curve]
- AC50 [2]: 1.64 µM [falling, partial curve, poor fit]

Compound: CC(=O)C1=NN(c2ccccc2)C(c2ccc3c(c2)OCO3)N1c1ccccc1 (stereo not drawn)
- cell number change: 23%
- AC50 [2]: 2.91 µM [rising, full curve]

Compound: CCOC(=O)C1CCN(S(=O)(=O)c2ccc3c(c2)N(C(C)=O)CC(C)S3)CC1 (stereo not drawn)
- cell number change: -28.9%
- AC50 [2]: 29.1 µM [falling, single point]

Compound: CC(C)(C)c1cc(C(c2cccnc2)N2CCN(CCO)CC2)cc(C(C)(C)C)c1O (stereo not drawn)
- cell number change: -67.3%
- AC50 [1]: 29.1 µM [falling, single point]
- AC50 [2]: 29.1 µM [falling, single point]

Compound: CCOC(=O)c1ccc(NC(=O)CSCCC(=O)O)cc1
- cell number change: -31%
- AC50 [1]: 0.092 µM [falling, full curve]

Compound: COCCNC(=O)CCCn1c(=O)c2ccccc2n(Cc2ccccc2C#N)c1=O
- cell number change: 58.6%
- AC50 [1]: 16.4 µM [rising, partial curve]

Compound: CC(=O)OCC12COC3c4ccccc4OC(C)(CC1C)C3C2C (stereo not drawn)
- cell number change: -2.16%
- AC50 [1]: 0.651 µM [rising, full curve]
- AC50 [2]: 6.51 µM [rising, single point]

Compound: O=C(Nc1ccc(-n2nncc2-c2ccco2)cc1)c1ccc(F)cc1
- cell number change: 17.3%

Compound: O=c1c2ccccc2[nH]c(=S)n1CCN1CCN(Cc2ccccc2)CC1
- cell number change: 52.2%
- AC50 [1]: 29.1 µM [rising, single point]

Compound: Cc1ccc(C(=O)NNC(=O)CCCN2C(=O)/C(=C/c3ccccc3Cl)SC2=S)cc1
- cell number change: -23.3%
- AC50 [2]: 14.6 µM [falling, partial curve]

Compound: O=S(=O)(c1ccccc1)N1CCN(c2cc(-c3ccccc3)nc3ncnn23)CC1
- cell number change: -40.3%
- AC50 [1]: 16.4 µM [falling, single point]
- AC50 [2]: 16.4 µM [falling, partial curve]

Compound: Cc1ccc(-n2ncc3c2CCCC3NC(=O)CCC2=NNC(=O)CC2)cc1C (stereo not drawn)
- cell number change: 7.28%
- AC50 [1]: 1.3 µM [rising, partial curve]
- AC50 [2]: 0.92 µM [rising, full curve, poor fit]

Compound: O=C(CN1CCC(C(=O)c2ccc(F)cc2)CC1)NCc1ccccc1F
- cell number change: -5.65%
- AC50 [2]: 6.51 µM [rising, single point]

Compound: Cc1ccc(/C=N/NC(=O)C(C)Oc2cccc3ccccc23)o1 (stereo not drawn)
- cell number change: -16.3%
- AC50 [2]: 2.91 µM [rising, single point]

Compound: CC(C)C(OC(=O)c1cc2occc2n1C)C(=O)NCc1ccc2c(c1)OCO2 (stereo not drawn)
- cell number change: 0.259%
- AC50 [2]: 1.16 µM [falling, partial curve]

Compound: FC(F)(F)c1cccc(NC(=S)NNC(=S)NCc2ccccc2)c1
- cell number change: -27.2%
- AC50 [2]: 29.1 µM [falling, single point]

Compound: O=C(O)c1cccc(N2C(=O)/C(=C/c3ccc([N+](=O)[O-])cc3)C=C2c2ccccc2)c1
- cell number change: -12%
- AC50 [2]: 25.9 µM [falling, single point]

Compound: Cc1ccccc1NC(=O)c1ccccc1-c1ccccc1
- AC50 [1]: 4.61 µM [falling, partial curve, poor fit]

Compound: COc1cccc(NC(=O)CN2CCN(S(=O)(=O)c3ccc(C(C)C)cc3)CC2)c1
- cell number change: -2.91%
- AC50 [2]: 0.103 µM [falling, full curve, poor fit]

Compound: Cc1cccc(-n2cc(-c3ccccc3)c3c(=O)[nH]cnc32)c1
- cell number change: -16.3%
- AC50 [2]: 0.326 µM [falling, full curve]

Compound: CCC(CC)c1nnc(NC(=O)CS(=O)(=O)c2ccccc2)s1
- cell number change: 10.1%
- AC50 [2]: 13 µM [rising, partial curve]

Compound: Cc1ccc(-c2nnc(Nc3ccc4c(c3)OCO4)c3ccccc23)cc1S(N)(=O)=O
- cell number change: -15.4%

Compound: C=CCNC(=S)Nc1sc2c(c1C(N)=O)CCCC2
- cell number change: -6.97%
- AC50 [2]: 0.517 µM [rising, partial curve]

Compound: CC(C)C(=O)Nc1cc(C(F)(F)F)ccc1N1CCOCC1
- AC50 [2]: 0.82 µM [rising, single point]

Compound: CCNC(=O)c1ccccc1NC(=O)c1cccc(S(=O)(=O)N2CCOCC2)c1
- cell number change: -40%
- AC50 [1]: 29.1 µM [falling, single point]
- AC50 [2]: 0.58 µM [rising, full curve, poor fit]

Compound: Cc1ccc(S(=O)(=O)NC2=NCN(C(C)C)CN2)cc1
- cell number change: -13.2%

Compound: O=C(O)CS(=O)CC(=O)Nc1cccc(C(F)(F)F)c1 (stereo not drawn)
- cell number change: 7.64%

Compound: CC(C)N1C(=O)c2ccccc2C1C(=O)NCCc1ccccc1 (stereo not drawn)
- cell number change: 9.91%
- AC50 [1]: 6.51 µM [rising, single point]

Compound: O=C(Nc1cccc(C(F)(F)F)c1)Nc1ccc2[nH]c(=O)[nH]c2c1
- cell number change: -17%

Compound: CCC(C)NC(=O)Cn1c(=O)n(CCCC(=O)NCc2ccccc2Cl)c(=O)c2ccccc21 (stereo not drawn)
- cell number change: 11.4%
- AC50 [1]: 0.517 µM [rising, partial curve, poor fit]
- AC50 [2]: 4.61 µM [rising, partial curve]

Compound: COc1ccc(C(=O)NC2CCCCCC2)cc1OC1CCN(C(C)=O)CC1
- cell number change: 2.75%

Compound: CC(C)Oc1ccc(C(=O)NC(C)(C)CO)cc1
- cell number change: 2.97%

Compound: COc1ccc(/C=C2\SC(=S)N(CCC(=O)N3CCCCC3CCO)C2=O)cc1 (stereo not drawn)
- AC50 [2]: 18.4 µM [falling, single point]

Compound: Cc1ccc2oc(C(=O)NCc3ccc4c(c3)OCO4)c(C)c2c1
- cell number change: -8.48%
- AC50 [2]: 29.1 µM [rising, single point]

Compound: COc1cc2cnc(-c3ccccc3)c(-c3ccc([N+](=O)[O-])cc3)c2cc1OC
- cell number change: -18.6%
- AC50 [2]: 0.0058 µM [rising, full curve, poor fit]

Compound: CCOc1ccc(NC(=O)c2cnsn2)cc1
- cell number change: -19.1%
- AC50 [1]: 0.146 µM [falling, full curve, poor fit]

Compound: COc1ccc(C2CC(c3ccccc3)=NN2S(=O)(=O)c2ccccc2)cc1 (stereo not drawn)
- cell number change: -26.6%

Compound: Cc1ccc2nc(-c3cccc(NS(C)(=O)=O)c3)cc(-c3ccccc3)c2c1
- cell number change: -21.2%
- AC50 [2]: 25.9 µM [falling, single point]

Compound: C=CCSc1nnc(COc2ccc(=O)n(-c3ccccc3)n2)n1CC
- cell number change: -1.3%
- AC50 [1]: 0.58 µM [rising, single point]

Compound: Cc1nnc(SCC(=O)N2CCCC(N3CCN(c4ccc(F)cc4)CC3)C2)o1 (stereo not drawn)
- cell number change: -5.45%
- AC50 [2]: 0.58 µM [falling, single point]

Compound: CC(C)C(NC(=O)c1ccccc1)C(=O)OCn1nnc2ccccc2c1=O (stereo not drawn)
- AC50 [2]: 20.6 µM [falling, partial curve]

Compound: Cc1cc(C)c(C(=O)C2OC(=O)C(C)(C)C(=O)C2(C)C)c(C)c1 (stereo not drawn)
- cell number change: -33%
- AC50 [1]: 0.92 µM [falling, full curve, poor fit]

Compound: CCc1noc(C)c1C(=O)Nc1cc(Cl)ccc1-n1cncn1
- cell number change: -75.5%
- AC50 [1]: 29.1 µM [falling, single point]

Compound: COc1ccc(/C=N/NC(=O)c2ccoc2C)cc1O
- cell number change: -24.1%
- AC50 [1]: 0.00461 µM [falling, full curve, poor fit]

Compound: O=C(Cc1cccs1)N/N=C/C(Br)=C/c1ccccc1
- cell number change: -71.9%
- AC50 [1]: 20.6 µM [falling, partial curve]
- AC50 [2]: 5.8 µM [falling, full curve]

Compound: COc1cc(NC(=S)Nc2ccccn2)cc(OC)c1OC
- cell number change: 12.3%
- AC50 [1]: 0.82 µM [rising, full curve, poor fit]
- AC50 [2]: 1.16 µM [rising, full curve]

Compound: COC(=O)c1ccc(OS(=O)(=O)c2ccc(NC(C)=O)cc2)cc1
- cell number change: 13.1%
- AC50 [2]: 6.51 µM [rising, single point]

Compound: CC(C(=O)O)N(C(=O)c1ccccc1)c1ccc(F)cc1 (stereo not drawn)
- cell number change: 21.2%
- AC50 [2]: 29.1 µM [rising, single point]

Compound: CN(C(=O)c1cccc(C#N)c1)c1nnc(C2CCCO2)s1 (stereo not drawn)
- cell number change: 4.91%

Compound: COc1ccc(CCNCC(=O)Nc2ccc(OC(F)(F)F)cc2)cc1OC
- cell number change: 12%
- AC50 [2]: 20.6 µM [falling, single point]
